Experimental data: the supplement of paper PMC8728848
Some of the results follow.

Columns and labels:
Experiment in all cases: glycan array binding signal (z-score within array); higher = stronger binding
Settings in all cases: glycan notation: IUPAC condensed, linker removed
[1] = biological target: Neu5Ac(a2-3)Gal(b1-4)GlcNAc(b1-2)[Neu5Ac(a2-3)Gal(b1-4)GlcNAc(b1-4)]Man(a1-3)[GlcNAc(b1-4)][Neu5Ac(a2-3)Gal(b1-4)GlcNAc(b1-4)Man(a1-6)]Man(b1-4)GlcNAc(b1-4)GlcNAc
In short: (§1)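 Glycan array binding is given as a within-array Z-score, which can be read as non-binding when negative. The arrays, 3228 of them, came from the Consortium for Functional Glycomics database and were retained only where the protein sequence was available. Z-scores were averaged across arrays of the same protein sequence at different concentrations or buffers and across linkers.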

[2] = biological target: Neu5Ac(a2-3)Gal(b1-4)GlcNAc(b1-2)[Neu5Ac(a2-3)Gal(b1-4)GlcNAc(b1-6)]Man(a1-6)[Neu5Ac(a2-3)Gal(b1-4)GlcNAc(b1-2)Man(a1-3)]Man(b1-4)GlcNAc(b1-4)GlcNAc
In short: as §1

[3] = biological target: Neu5Ac(a2-3)Gal(b1-4)GlcNAc(b1-2)[Neu5Ac(a2-3)Gal(b1-4)GlcNAc(b1-6)]Man(a1-6)[Neu5Ac(a2-3)Gal(b1-4)GlcNAc(b1-2)Man(a1-3)][GlcNAc(b1-4)]Man(b1-4)GlcNAc(b1-4)GlcNAc
In short: as §1

[4] = biological target: Neu5Ac(a2-3)Gal(b1-4)GlcNAc(b1-3)Gal
In short: as §1

[5] = biological target: Neu5Ac(a2-3)Gal(b1-4)GlcNAc(b1-3)Gal(b1-3)GlcNAc
In short: as §1

[6] = biological target: Neu5Ac(a2-3)Gal(b1-4)GlcNAc(b1-3)Gal(b1-4)GlcNAc
In short: as §1

[7] = biological target: Neu5Ac(a2-3)Gal(b1-4)GlcNAc(b1-3)Gal(b1-4)GlcNAc(b1-2)Man(a1-3)[Neu5Ac(a2-3)Gal(b1-4)GlcNAc(b1-3)Gal(b1-4)GlcNAc(b1-2)Man(a1-6)]Man(b1-4)GlcNAc(b1-4)GlcNAc
In short: as §1

[8] = biological target: Neu5Ac(a2-3)Gal(b1-4)GlcNAc(b1-3)Gal(b1-4)GlcNAc(b1-3)Gal(b1-4)GlcNAc
In short: as §1

[9] = biological target: Neu5Ac(a2-3)Gal(b1-4)GlcNAc(b1-3)Gal(b1-4)GlcNAc(b1-3)Gal(b1-4)GlcNAc(b1-2)Man(a1-3)[Neu5Ac(a2-3)Gal(b1-4)GlcNAc(b1-3)Gal(b1-4)GlcNAc(b1-3)Gal(b1-4)GlcNAc(b1-2)Man(a1-6)]GalNAc
In short: as §1

[10] = biological target: Neu5Ac(a2-3)Gal(b1-4)GlcNAc(b1-3)Gal(b1-4)GlcNAc(b1-3)GalNAc
In short: as §1

[11] = biological target: Neu5Ac(a2-3)Gal(b1-4)GlcNAc(b1-3)Gal(b1-4)GlcNAc(b1-3)[Neu5Ac(a2-3)Gal(b1-4)GlcNAc(b1-3)Gal(b1-4)GlcNAc(b1-6)]GalNAc
In short: as §1

[12] = biological target: Neu5Ac(a2-3)Gal(b1-4)GlcNAc(b1-3)Gal(b1-4)GlcNAc(b1-6)[Gal(b1-3)]GalNAc
In short: as §1

[13] = biological target: Neu5Ac(a2-3)Gal(b1-4)GlcNAc(b1-3)Gal(b1-4)[Fuc(a1-3)]GlcNAc
In short: as §1

[14] = biological target: Neu5Ac(a2-3)Gal(b1-4)GlcNAc(b1-3)GalNAc
In short: as §1

[15] = biological target: Neu5Ac(a2-3)Gal(b1-4)GlcNAc(b1-3)[Neu5Ac(a2-3)Gal(b1-4)GlcNAc(b1-6)]GalNAc
In short: as §1

[16] = biological target: Neu5Ac(a2-3)Gal(b1-4)GlcNAc(b1-6)GalNAc
In short: as §1

[17] = biological target: Neu5Ac(a2-3)Gal(b1-4)GlcNAc(b1-6)[Gal(b1-3)]GalNAc
In short: as §1

[18] = biological target: Neu5Ac(a2-3)Gal(b1-4)GlcNAc(b1-6)[Neu5Ac(a2-3)Gal(b1-3)]GalNAc
In short: as §1

[19] = biological target: Neu5Ac(a2-3)Gal(b1-4)GlcNAc6S
In short: as §1

[20] = biological target: Neu5Ac(a2-3)Gal(b1-4)[Fuc(a1-3)]GlcNAc
In short: as §1

[21] = biological target: Neu5Ac(a2-3)Gal(b1-4)[Fuc(a1-3)]GlcNAc(b1-2)Man
In short: as §1

[22] = biological target: Neu5Ac(a2-3)Gal(b1-4)[Fuc(a1-3)]GlcNAc(b1-3)Gal
In short: as §1

[23] = biological target: Neu5Ac(a2-3)Gal(b1-4)[Fuc(a1-3)]GlcNAc(b1-3)Gal(b1-4)GlcNAc
In short: as §1

[24] = biological target: Neu5Ac(a2-3)Gal(b1-4)[Fuc(a1-3)]GlcNAc(b1-3)Gal(b1-4)[Fuc(a1-3)]GlcNAc(b1-3)Gal(b1-4)[Fuc(a1-3)]GlcNAc
In short: as §1

[25] = biological target: Neu5Ac(a2-3)Gal(b1-4)[Fuc(a1-3)]GlcNAc(b1-3)GalNAc
In short: as §1

[26] = biological target: Neu5Ac(a2-3)Gal(b1-4)[Fuc(a1-3)]GlcNAc(b1-6)[Gal(b1-3)]GalNAc
In short: as §1

[27] = biological target: Neu5Ac(a2-3)Gal(b1-4)[Fuc(a1-3)]GlcNAc(b1-6)[Neu5Ac(a2-3)Gal(b1-3)]GalNAc
In short: as §1

[28] = biological target: Neu5Ac(a2-3)Gal(b1-4)[Fuc(a1-3)]GlcNAc6S
In short: as §1

[29] = biological target: Neu5Ac(a2-3)Gal6S(b1-4)GlcNAc
In short: as §1

[30] = biological target: Neu5Ac(a2-3)Gal6S(b1-4)[Fuc(a1-3)]GlcNAc
In short: as §1

Neu5Ac(a2-3)GalNAc = biological target: Neu5Ac(a2-3)GalNAc
In short: as §1

[31] = biological target: Neu5Ac(a2-3)GalNAc(b1-4)GlcNAc
In short: as §1

[32] = biological target: Neu5Ac(a2-3)[GalNAc(b1-4)]Gal(b1-4)Glc
In short: as §1

[33] = biological target: Neu5Ac(a2-3)[GalNAc(b1-4)]Gal(b1-4)GlcNAc
In short: as §1

[34] = biological target: Neu5Ac(a2-3)[GalNAc(b1-4)]Gal(b1-4)GlcNAc(b1-3)GalNAc
In short: as §1

[35] = biological target: Neu5Ac(a2-3)[Neu5Ac(a2-6)]GalNAc
In short: as §1

Neu5Ac(a2-6)Gal = biological target: Neu5Ac(a2-6)Gal
In short: as §1

B1: GS13971A-bth-447-22-447 (Bacteroides thetaiotaomicron) (protein)
chain: EDVDNERSKGMFSASQSGFSTIEVYDLGPLNKIDLSIAKAGLEDTGGTVTFSVEQSLLDSLNNADGTSYQLLPPECYTIENATYSVSPGGDRRVTGGSLVYDPHKIYNLCGFDELKYVLPLRVSSTGTPMNSDRTATLYGFIVKEAIVRLASTGGDFVVEGGTTTSPMNLDTEISFENEWDLTTSFATKGADYVDNYNSANSTYYIPLPSDFYTLPDVTIAKGKTTGGSAISLLGETLPPGNYLLPVSLGGLSGQGDASINIDKETVANYFVIKQGGPINRDHWTVTANTEEKTGEVSAAYPHNGQTISLIDGEINTFWHSKWQGGEVAPPYEIILDMGKENSVSQLGLIARQNALTSMNLEIYAGDDGETWNLIGKYFFDGSIKTEQMVPVKACDARWIRIYIPTLGSGSSVGHLAEIYVYGTDK
- glycan array binding signal (z-score) [1]: -0.553
- glycan array binding signal (z-score) [2]: 1.47
- glycan array binding signal (z-score) [3]: -0.94
- glycan array binding signal (z-score) [4]: -0.386
- glycan array binding signal (z-score) [5]: -0.335
- glycan array binding signal (z-score) [6]: 1.45
- glycan array binding signal (z-score) [7]: 0.477
- glycan array binding signal (z-score) [8]: -0.509
- glycan array binding signal (z-score) [9]: 2.81
- glycan array binding signal (z-score) [10]: -0.298
- glycan array binding signal (z-score) [11]: -1.13
- glycan array binding signal (z-score) [12]: -1.45
- glycan array binding signal (z-score) [13]: 0.405
- glycan array binding signal (z-score) [14]: -0.583
- glycan array binding signal (z-score) [15]: -0.884
- glycan array binding signal (z-score) [16]: -1.03
- glycan array binding signal (z-score) [17]: 0.358
- glycan array binding signal (z-score) [18]: -0.5
- glycan array binding signal (z-score) [19]: -1.5
- glycan array binding signal (z-score) [20]: 0.375
- glycan array binding signal (z-score) [21]: -0.742
- glycan array binding signal (z-score) [22]: -0.124
- glycan array binding signal (z-score) [23]: 0.574
- glycan array binding signal (z-score) [24]: -0.587
- glycan array binding signal (z-score) [25]: 1.95
- glycan array binding signal (z-score) [26]: 0.159
- glycan array binding signal (z-score) [27]: 0.222
- glycan array binding signal (z-score) [28]: -0.912
- glycan array binding signal (z-score) [29]: 0.523
- glycan array binding signal (z-score) [30]: 0.166
- glycan array binding signal (z-score) (Neu5Ac(a2-3)GalNAc): 1.35
- glycan array binding signal (z-score) [31]: -0.838
- glycan array binding signal (z-score) [32]: 0.396
- glycan array binding signal (z-score) [33]: -0.552
- glycan array binding signal (z-score) [34]: 0.08
- glycan array binding signal (z-score) [35]: 0.216
- glycan array binding signal (z-score) (Neu5Ac(a2-6)Gal): 0.263
